Results published in patent publication US9974767B2, “Statins in the treatment of muscular dystrophies and myopathies” (University of Washington, priority 2014, dated 2018).
Entries after “also recorded” stand apart in the source; their conditions may differ. At least one structure is not confirmed: it was looked up by name or label, or the drawing left a doubt.

What was measured:
mdx mice [1] = test: Plasma creatine kinase (CK) activity as measure of whole-body muscle damage; format: in vivo, mouse; settings: long-term (8 months) treatment
mdx mice [2] = test: Plasma LDL/VLDL and HDL cholesterol; format: in vivo, mouse
WT mice = test: Plasma LDL/VLDL cholesterol, wild type mice

CCC(C)(C)C(=O)O[C@H]1C[C@@H](C)C=C2C=C[C@H](C)[C@H](CC[C@@H]3C[C@@H](O)CC(=O)O3)[C@H]21 [Simvastatin, simvastatin]
plasma/serum CK activity, in words (mdx mice [1]): near-normal levels | plasma/serum CK activity, in words (mdx mice [1]; listed as simvastatin): near normal levels; also recorded: dramatically reduced | plasma LDL/VLDL cholesterol (mdx mice [2]): did not lower | plasma LDL/VLDL cholesterol (WT mice): did not lower
